Experimental data: PubChem BioAssay AID1159578 (Peter MacCallum Cancer Centre, 2015)
Purpose: 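siRNA pools altering how lymphatic endothelial cells close a scratch wound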 (primary screen). Cells: human lymphatic endothelial cells. Knock-down reagent: siRNA pool against human genes, 40 nM. Time to read-out: 48 h after transfection. Read-out: 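High-content imaging of dye-stained cells in a scratch assay measures filled wound area and nuclei per well; duplicate means given as ratio to mock and robust z-score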. Reading the numbers: migration robust z-score: higher = faster migration into the scratch; migration relative to mock: higher = more scratch area covered than mock; nuclei per well: higher = more cells in the well. Rule for the call: 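Migration changed when robust z exceeds 2 or falls below -2 and mean nuclei number is at least 3300; otherwise not called changed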. Meaning of the calls: active = migration changed; inactive = no migration change, or too few cells.
The deposit covers about 18,000 reagents; this is a random part of them. About 1,030 of them (5.7%) count as active. 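Inactive calls also include pools with fewer than 3300 nuclei, whose migration was not assessed.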 The raw values are shown without normalisation. Reagent sequences are not shown.

| Target gene | migration robust z-score | migration class with cell-count check | migration relative to mock | nuclei per well, duplicate mean | activity call |
| --- | --- | --- | --- | --- | --- |
| RPL5 (ribosomal protein L5) | -1.33 | migration z between -2 and 2; enough cells | 0.54 | 4856 | inactive |
| GPR135 (G protein-coupled receptor 135) | 0.55 | migration z between -2 and 2; enough cells | 0.91 | 7224 | inactive |
| RHBDL3 (rhomboid like 3) | 0.11 | migration z between -2 and 2; enough cells | 0.82 | 5212 | inactive |
| PRPSAP2 (phosphoribosyl pyrophosphate synthetase associated protein 2) | 0.67 | migration z between -2 and 2; enough cells | 1.06 | 5510 | inactive |
| SEC11A (SEC11 homolog A, signal peptidase complex subunit) | 1.14 | migration z between -2 and 2; enough cells | 1.02 | 5755 | inactive |
| DENND11 (DENN domain containing 11) | 0.1 | migration z between -2 and 2; enough cells | 0.91 | 6623 | inactive |
| PAXX (PAXX non-homologous end joining factor) | 1.2 | migration z between -2 and 2; enough cells | 1.19 | 7226 | inactive |
| OR13C8 (olfactory receptor family 13 subfamily C member 8) | -0.61 | migration z between -2 and 2; enough cells | 0.73 | 5276 | inactive |
| TNNC2 (troponin C2, fast skeletal type) | -0.26 | migration z between -2 and 2; enough cells | 0.82 | 7142 | inactive |
| HMGA2 (high mobility group AT-hook 2) | -1.31 | migration z between -2 and 2; enough cells | 0.54 | 4132 | inactive |
| GRIA2 (glutamate ionotropic receptor AMPA type subunit 2) | 1.92 | migration z between -2 and 2; enough cells | 1.17 | 6495 | inactive |
| AIP (AHR interacting HSP90 co-chaperone) | -1.38 | migration z between -2 and 2; enough cells | 0.54 | 4616 | inactive |
| SPSB1 (splA/ryanodine receptor domain and SOCS box containing 1) | -1.32 | migration z between -2 and 2; enough cells | 0.55 | 5166 | inactive |
| RALGPS2 (Ral GEF with PH domain and SH3 binding motif 2) | 0.23 | migration z between -2 and 2; enough cells | 0.94 | 6313 | inactive |
| TRIM43B (tripartite motif containing 43B) | 0.39 | migration z between -2 and 2; enough cells | 0.88 | 5795 | inactive |
| ITGAE (integrin subunit alpha E) | 0.05 | migration z between -2 and 2; enough cells | 0.82 | 6600 | inactive |
| RGS9BP (regulator of G protein signaling 9 binding protein) | 0 | migration z between -2 and 2; enough cells | 0.88 | 5634 | inactive |
| UNC45A (unc-45 myosin chaperone A) | 0.19 | migration z between -2 and 2; enough cells | 0.94 | 5622 | inactive |
| NTN4 (netrin 4) | 1.22 | migration z between -2 and 2; enough cells | 1.21 | 6540 | inactive |
| FGF20 (fibroblast growth factor 20) | 0.26 | migration z between -2 and 2; enough cells | 0.86 | 4613 | inactive |
| RELN (reelin) | 0.26 | migration z between -2 and 2; enough cells | 0.86 | 4877 | inactive |
| FAM107B (family with sequence similarity 107 member B) | -1.14 | migration z between -2 and 2; enough cells | 0.59 | 6169 | inactive |
| CCDC167 (coiled-coil domain containing 167) | -1.22 | migration z between -2 and 2; enough cells | 0.57 | 5832 | inactive |
| ERGIC2 (ERGIC and golgi 2) | 2.32 | migration z above 2; enough cells | 1.48 | 5747 | active |
| ADGRG4 (adhesion G protein-coupled receptor G4) | 1.4 | migration z between -2 and 2; enough cells | 1.08 | 5997 | inactive |
| ZKSCAN3 (zinc finger with KRAB and SCAN domains 3) | -0.22 | migration z between -2 and 2; enough cells | 0.83 | 6166 | inactive |
| KLK8 (kallikrein related peptidase 8) | -0.29 | migration z between -2 and 2; enough cells | 0.75 | 5202 | inactive |
| C1GALT1C1 (C1GALT1 specific chaperone 1) | -0.19 | migration z between -2 and 2; enough cells | 0.84 | 5194 | inactive |
| IFNA13 (interferon alpha 13) | 0.88 | migration z between -2 and 2; enough cells | 1.11 | 6886 | inactive |
| NMUR1 (neuromedin U receptor 1) | -0.47 | migration z between -2 and 2; enough cells | 0.72 | 5888 | inactive |
| DEPDC5 (DEP domain containing 5, GATOR1 subcomplex subunit) | 0.77 | migration z between -2 and 2; enough cells | 1.08 | 6558 | inactive |
| NAP1L5 (nucleosome assembly protein 1 like 5) | 1.35 | migration z between -2 and 2; enough cells | 1.23 | 5606 | inactive |
| PDX1 (pancreatic and duodenal homeobox 1) | -1.12 | migration z between -2 and 2; enough cells | 0.59 | 4808 | inactive |
| ZNF658B (zinc finger protein 658B (pseudogene)) | 1.72 | migration z between -2 and 2; enough cells | 1.33 | 4710 | inactive |
| TST (thiosulfate sulfurtransferase) | -0.36 | under 3300 nuclei; migration not judged | 0.74 | 3145 | inactive |
| PHETA2 (PH domain containing endocytic trafficking adaptor 2) | -1.04 | migration z between -2 and 2; enough cells | 0.61 | 5864 | inactive |
| PPFIBP1 (PPFIB scaffold protein 1) | -0.12 | migration z between -2 and 2; enough cells | 0.86 | 5455 | inactive |
| ZC2HC1C (zinc finger C2HC-type containing 1C) | 0.34 | migration z between -2 and 2; enough cells | 0.97 | 5966 | inactive |
| CPNE5 (copine 5) | 0.76 | migration z between -2 and 2; enough cells | 0.95 | 4761 | inactive |
